Test results reported in US11371013B2, “Culture medium composition and method of culturing cell or tissue using thereof” (Nissan Chemical Industries, Ltd., priority 2012, dated 2022).

System: HeLa cell sphere
Assay: Cell suspension test with HeLa cell spheres
Parameters: species or system human
Conditions: 37°C, 1 hr

**Q.** Which HeLa cell suspension/sedimentation (0.01% (w/v)) does the source give for collagen here?
**A.** sedimentation

**Q.** And the HeLa cell suspension/sedimentation (0.05% (w/v))?
**A.** suspension

**Q.** What about the HeLa cell suspension/sedimentation (0.1% (w/v)) of the same substance?
**A.** suspension

**Q.** What about the HeLa cell suspension/sedimentation (0.2% (w/v)) of the same substance?
**A.** suspension
